Where a name gives a salt, the structure may show the parent alone. Read-outs that look alike come from different tables or passages of the source.
Experiments:
Hypertonie [1] = conditions: mean (SD)
Hypertonie [2] = conditions: mean (SD); remark: listed apart in the source

SMILES: COc1ccc([C@@H]2Sc3ccccc3N(CCN(C)C)C(=O)[C@@H]2OC(C)=O)cc1 [Diltiazem, Diltiazemhydrochlorid]
- Körpergewicht (kg) (Hypertonie [1]; 1 × 180 mg (n = 40), Basislinie (end of placebo phase)): 82.5 (13.8) kg
- Körpergewicht (kg) (Hypertonie [1]; 1 × 180 mg (n = 40), Endpunkt (3 weeks)): 79.7 (12.6) kg
- Körpergewicht (kg) (Hypertonie [1]; 2 × 90 mg (n = 42), Basislinie (end of placebo phase)): 83.7 (15.7) kg
- Körpergewicht (kg) (Hypertonie [1]; 2 × 90 mg (n = 42), Endpunkt (3 weeks)): 80.9 (14.2) kg
- Körpergewicht (kg) (Hypertonie [2]; 1 × 180 mg (n = 30), Basislinie (end of placebo phase)): 80.3 (13.6) kg
- Körpergewicht (kg) (Hypertonie [2]; 1 × 180 mg (n = 30), Endpunkt (8 weeks)): 79.9 (13.5) kg
- Körpergewicht (kg) (Hypertonie [2]; 2 × 90 mg (n = 30), Basislinie (end of placebo phase)): 79.2 (12.9) kg
- Körpergewicht (kg) (Hypertonie [2]; 2 × 90 mg (n = 30), Endpunkt (8 weeks)): 79.0 (12.9) kg

From patent publication EP0315197B1 (GÖDECKE AKTIENGESELLSCHAFT, priority 1987, dated 1989)
